Test results taken from US20230203142A1, “TREATMENT OF METABOLIC DISORDERS THROUGH THE TARGETING OF A NOVEL CIRCULATING HORMONE COMPLEX” (The President and Fellows of Harvard College, priority 2020, published 2023).

Test system: non-diabetic NOD mice
Experiment: Immune phenotyping (FACS) of tissues of treated NOD mice
Type: in vivo, mouse
Description: To perform immune phenotyping, mice were euthanized with CO2 and cardiac perfusion performed with 40 ml of sterile PBS. Whole pancreas, pancreatic lymph nodes (PLN), inguinal lymph nodes (ILN), and spleen were harvested, diced into 1 mm pieces, placed in digestion buffer (RPMI 1640, lmg/ml Collagenase Type IV, 10 U/ml DNAsel, and 1% BSA), and incubated at 37° C. for 20 min shaking at 250 rpm. Pancreas samples were filtered through a 40 μm nylon strainer into a fresh 50 ml tube, and fresh media added up to 40 ml (RPMI 1640, 1% FBS, 1% Sodium Pyruvate, 1.56 ul β-mercaptoethanol). Tubes were then centrifuged at 1500 rpm for 10 min, supernatant removed, and cells resuspended in 2 ml fresh media. Resuspended cells were passed through a 40 μm nylon filter into a 15 ml round-bottomed polystyrene tube. For PLN, ILN, and spleen, digestion samples were filtered through a 40 μm nylon strainer into a 15 ml round bottom polystyrene tube, and lml of media was added. Spleen samples had supernatant removed, and lml ACK lysis buffer (Thermo Scientific A1049201) added for 2 min at room temperature. Samples were then centrifuged at 1500 rpm for 5 min, and resuspended in 1 ml media. All samples were centrifuged at 1500 rpm for 5 min, supernatant removed, and cells resuspended in FACS buffer (5% BSA in cold PBS; 0.5 ml for PLN and ILN, lml for pancreas and spleen). Staining and FACS analysis were performed as previously described (Engin et al., 2013).

[1] = inguinal lymph nodes, non-diabetic NOD mice, mean
[2] = pancreatic lymph nodes, non-diabetic NOD mice, mean

B1: a-Ab: monoclonal antibody previously reported as CA33; heavy chain SEQ ID NO 446, light chain SEQ ID NO 447; binds FABP4 and NDPK (antibody, listed as Homo sapiens)
heavy: QSVEESGGRLVTPGTPLTLTCTVSGFSLSTYYMSWVRQAPGKGLEWIGIIYPSGSTYCASWAKGRFTISKASTTVDLKITSPTTEDTATYFCARPDNDGTSGYLSGFGLWGQGLVTVSSAKTTPPSVYPLAPGSAAQTNSMVTLGCLVKGYFPEPVTVTWNSGSLSSGVHTFPAVLQSDLYTLSSSVTVPSSTWPSETVTCNVAHPASSTKVDKKIVPRDC
light: DVVMTQTPASVSEPVGGTVTIKCGASEDISRYLVWYQQKPGQPPKRLIYKASTLASGVPSRFKGSGSGTDFTLTISDLECDDAATYYCQCTYGTYAGSFFYSFGGGTEVVVERTDAAPTVSIFPPSSEQLTSGGASVVCFLNNFYPKDINVKWKIDGSERQNGVLNSWTDQDSKDCTYSMSSTLTLTKDEYERHNSYTCEATHKTSTSPIVKSFNRNEC
ILN B Cells [1]: 19.0% | ILN CD45+ [1]: 98.8% | ILN Dendritic Cells [1]: 4.8% | ILN Granulocytes [1]: 2.3% | ILN Regulatory T-Cells [1]: 3.9% | ILN T-Helper Cells [1]: 56.6% | Spleen B Cells (non-diabetic NOD mice, mean): 51.3% | Spleen CD45+ (non-diabetic NOD mice, mean): 96.2% | Spleen Dendritic Cells (non-diabetic NOD mice, mean): 0.98% | Spleen Granulocytes (non-diabetic NOD mice, mean): 2.0% | Spleen Regulatory T-Cells (non-diabetic NOD mice, mean): 3.1% | Spleen T-Helper Cells (non-diabetic NOD mice, mean): 30.4% | PLN B Cells [2]: 38.1% | PLN CD45+ [2]: 97.4% | PLN Dendritic Cells [2]: 12.9% | PLN Granulocytes [2]: 5.0% | PLN Regulatory T-Cells [2]: 3.3% | PLN T-Helper Cells [2]: 41.3% | percentage of total immune cell numbers (whole pancreas, non-diabetic mice, 12 wks): significantly reduced
